Publication PMC9073322
Substitutions are numbered along the chain they refer to. These are yes or no findings as the source states them, for the method shown. A result given as binding can be weak or reduced; the word gives no strength. Sequences can lack the tags named with a protein.

Tests used:
[1] = biological target: T1, DWARF14 (D14) fused to GAL4-BD (Arabidopsis thaliana) (UniProt Q9SQR3); experiment: two-hybrid; D14 or d14^seto fused to GAL4-BD, SMXL proteins and domains fused to GAL4-AD; serial dilutions of yeast on selective medium (-His low stringency, -His -Ade higher stringency) supplemented with 2 μM GR24^5DS
T1 sequence: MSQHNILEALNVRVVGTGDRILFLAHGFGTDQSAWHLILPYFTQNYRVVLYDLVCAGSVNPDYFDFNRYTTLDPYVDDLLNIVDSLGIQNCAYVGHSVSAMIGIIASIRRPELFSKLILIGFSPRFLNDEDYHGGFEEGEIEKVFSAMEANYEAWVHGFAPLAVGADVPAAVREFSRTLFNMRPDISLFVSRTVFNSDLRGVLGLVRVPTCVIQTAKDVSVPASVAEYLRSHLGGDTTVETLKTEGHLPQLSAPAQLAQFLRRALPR

[2] = biological target: T2, d14^seto fused to GAL4-BD (Arabidopsis thaliana) (UniProt Q9SQR3); experiment: as above
T2 sequence: T1 sequence with P169L

[3] = biological target: T2, d14^seto fused to GAL4-BD (Arabidopsis thaliana); experiment: two-hybrid; as a1 but selective medium supplemented with acetone (control), no GR24^5DS

| Substance | binding [1] | binding [2] | binding [3] |
| --- | --- | --- | --- |
| D1M domains of SMAX1 (SMAX1D1M) fused to GAL4-AD (Arabidopsis thaliana) (domain or fragment) | binds | binds | binds |
| D1M domains of SMXL7 (SMXL7D1M) fused to GAL4-AD (Arabidopsis thaliana) (domain or fragment) | binds | – | – |
